Measured values published in patent US6034234.
Construct, isoform or probe ends are uncertain for at least one entry. Where cells or extracts were used, other partners may take part. For part of these data: A negative result means that nothing was seen under these conditions.

Experiments:
[1] = test system: E2F (endogenous E2F protein in cell extract); assay: competition with a labelled probe; conditions: 100x unlabeled shuffled duplex did not compete the complex; protein in an extract; variant of SEQ ID NO:1 E2F decoy
[2] = test system: E2F (endogenous E2F protein in cell extract); assay: EMSA; conditions: 4 C, 20 min, protein in an extract, label: 32P

GGTGTCTCGGTCTCTCCGTCTCTC (double strand) [SEQ ID NO:4 shuffled]
binding result [1]: no binding

TTTGGCGCTTTCGCGCTTTCCCGC (double strand) [SEQ ID NO:1 E2F decoy]
binding result ([2]; complex abolished by 100x unlabeled SEQ ID NO:1 or 3): binds

GCTTTCCCGCCAAATTTCGCGCGAAAGC (double strand) [SEQ ID NO:3 E2F decoy]
binding result ([2]; complex abolished by 100x unlabeled same sequence): binds
